Results published in PubChem BioAssay AID1347076 (National Center for Advancing Translational Sciences (NCATS), 2019).
About 13,000 (3.2%) of roughly 400,000 compounds were called active. The inconclusive results got no clear call from the source; some entries with a clear call stand among them for comparison. Calls come from the whole dose curve; as a rule, active = well fitted cell-killing curve with a large enough effect; inconclusive = small, poorly fitted or top-dose-only effect, or effect the other way; inactive = flat fitted curve, though single readings scatter. Where the call is inconclusive, the potency comes from a doubtful curve fit.
% is set by controls: 0 for no effect and ±100 for the full control effect; potency is the fitted concentration of half-maximal effect.

Experiment: qHTS assay for MDR1-selective chemotherapeutics: Primary screen using the drug-selected MDR subline cells KB-V1; note: nearly all actives have a fitted effect of over 60% in size
Conditions: KB-V1 MDR cells viability, CellTiter-Glo, 72 h; activity change, negative = cytotoxicity: at 46.1 µM (top of the series)
Summary of the method: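 Compound-treated KB-V1 multidrug-resistant cells, 72 h, 37 degrees C; viability by CellTiter-Glo. Fitted qHTS curves give the values.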
In the case of `COc1ccc(C(C)=O)cc1CSc1nc2ccccc2c(=O)n1-c1ccccc1C`, the Potency is reported as active: 20.6 µM. In the case of `COCCn1c(C)cc(C(=O)COC(=O)c2ccc(S(=O)(=O)N(C)C)cc2)c1C`, the Potency is reported as inconclusive: 0.231 µM [rising, full curve]. With `CCOc1ccccc1N1CCN(C(=O)c2cc3ccccc3cc2OC)CC1` the Potency was active: 16.4 µM. For `COc1ccc(OC(=O)c2nc(SCc3ccccc3C)ncc2Cl)cc1`, the Potency was inconclusive: 25.9 µM [rising, single point]. In the case of `NCCc1c(C(=O)O)[nH]c2ccc([N+](=O)[O-])cc12`, the Potency is reported as active: 10.3 µM. With `CCOC(=O)c1c(NS(=O)(=O)c2cccc(OC)c2)sc2c1CCC2` the Potency was inconclusive: 29.1 µM [cytotoxic, single point]. In the case of `O=C1C(Cl)=C(Nc2ccc(O)cc2)C(=O)c2ccccc21`, the Potency is reported as inconclusive: 16.4 µM [cytotoxic, single point]. For `O=C(C[n+]1ccnc2ccccc21)c1ccc(Cl)cc1`, the “activity change, negative = cytotoxicity” value was inactive: 3.44%. With `CCN1C(=O)c2ccc(C(=O)Nc3c(C)cc(C)cc3C)cc2C1=O` the Potency was inconclusive: 20.6 µM [rising, single point]. In the case of `Cc1cc(C)c2c(CC(=O)Nc3cc(C(F)(F)F)ccc3Cl)coc2c1`, the “activity change, negative = cytotoxicity” value is reported as inactive: 5.65%. With `CCCN1C(=O)S/C(=C\c2ccc(N3CCOCC3)o2)C1=O` the Potency was inconclusive: 29.1 µM [cytotoxic, single point]. In the case of `CC(C)(C)OC(=O)NCc1ccc(CNC(=O)c2[nH]cnc2C(=O)Nc2ccccc2F)cc1`, the Potency is reported as inconclusive: 18.4 µM [cytotoxic, single point]. With `CCOC(=O)C1=CC[C@@H](c2ccccc2Cl)N(S(=O)(=O)c2ccc(C)cc2)[C@H]1C(=O)OCC` the Potency was active: 16.4 µM. With `CCOC(=O)c1ccc(CNC(=O)CSc2nc(NC(=O)c3ccccc3)c3c(C)c(C)oc3n2)cc1` the “activity change, negative = cytotoxicity” value was inactive: -6.75%. With `O=[N+]([O-])c1ccc2c(c1Nc1ccccc1)=NC1(CCCCC1)N=2` the Potency was inconclusive: 29.1 µM [cytotoxic, single point]. For `CCN1CCCc2cc(CN(CCN3CCOCC3)C(=O)Nc3ccc(C)c(C)c3)ccc21`, the Potency was active: 20.6 µM. In the case of `CC(C)C[C@H]1CNC(=S)N1C[C@H]1CCCN1C[C@H](Cc1ccc(O)cc1)N1C[C@H](CC(C)C)N(CCc2ccccc2)C1=S`, the Potency is reported as inconclusive: 16.4 µM [cytotoxic, single point]. For `COc1cccc(C(=O)Nc2nnc(SCC(=O)NC3CCCC3)s2)c1`, the Potency was inconclusive: 18.4 µM [cytotoxic, single point]. For `C[C@@H]1CN([C@H](C)CO)C(=O)CCCn2nncc2CO[C@H]1CN(C)C`, the “activity change, negative = cytotoxicity” value was inactive: -12.6%. With `COCCNC(=S)NC(=O)CC12CC3CC(CC(C3)C1)C2` the Potency was active: 16.4 µM. For `COc1cc(CN2C(=O)C(C)ON=C2c2cccs2)cc(OC)c1` (configuration not stated), the Potency was inconclusive: 29.1 µM [cytotoxic, single point]. With `Cc1cccn2cc(COc3ccc(-c4ccccc4)cc3)nc12` the Potency was inconclusive: 18.4 µM [cytotoxic, partial curve]. For `CCOC(=O)c1oc2ccccc2c1NC(=O)COC`, the Potency was inconclusive: 32.6 µM [cytotoxic, single point]. In the case of `COC(=O)c1ccccc1NC(=O)NCc1ccccn1`, the “activity change, negative = cytotoxicity” value is reported as inactive: -7.98%. With `COc1ccc2oc(/C=C/N(C)C)c(C(=O)c3ccc(Cl)cc3)c2c1` the “activity change, negative = cytotoxicity” value was inactive: -18.7%. With `COc1ccc(/C=N/NC(=O)C(=O)N2CCCCCC2)cc1O` the “activity change, negative = cytotoxicity” value was inactive: -3.13%. In the case of `O=C(NCCc1ccc(Cl)cc1)C(=O)c1c[nH]c2ccccc12`, the Potency is reported as inconclusive: 6.51 µM [cytotoxic, partial curve]. With `CC1=NN(c2ccccc2)C(=O)C1C=Nc1ccccc1O` (configuration not stated) the Potency was inconclusive: 29.1 µM [cytotoxic, single point]. For `CN1CCN(C(=O)CN(C)S(=O)(=O)c2ccc(F)cc2)CC1`, the “activity change, negative = cytotoxicity” value was inactive: 6.13%. In the case of `N=c1sccn1CC(=O)NCCc1ccc(Cl)cc1`, the Potency is reported as inconclusive: 6.51 µM [rising, partial curve, poor fit]. In the case of `COc1ccc(NC(=O)Cn2c3ccc(OC)cc3c3nc4n(c(=O)c32)CCS4)cc1`, the Potency is reported as inconclusive: 2.91 µM [rising, partial curve, poor fit]. In the case of `O=C(NCc1cccs1)C1CCC(=O)N(Cc2cccc(C(F)(F)F)c2)C1` (configuration not stated), the Potency is reported as inconclusive: 29.1 µM [cytotoxic, single point]. For `CCn1c(-c2ccccc2Cl)nn(CC(=O)Nc2ccc(OC)cc2)c1=S`, the Potency was inconclusive: 29.1 µM [cytotoxic, single point]. For `CCCNC(=O)C1(C)CCN(C(=O)C2(c3ccc(Cl)cc3)CCCC2)C1` (configuration not stated), the “activity change, negative = cytotoxicity” value was inactive: -2.32%. In the case of `Cc1cccc(NC(=O)c2cc3c(=O)n(Cc4cccnc4)ccc3nc2C)c1`, the “activity change, negative = cytotoxicity” value is reported as inactive: 5.18%. For `O=C(COC(=O)CNC(=O)c1ccccc1)Nc1ccc(Cl)cn1`, the “activity change, negative = cytotoxicity” value was inactive: 0.641%. With `CCOc1ccccc1C(=O)Nc1cccc(-c2ccc(N3CCOCC3)nn2)c1` the Potency was inconclusive: 29.1 µM [cytotoxic, single point]. In the case of `O=C(CCN1C(=O)c2ccccc2S1(=O)=O)Nc1ccc(C(=O)O)cc1`, the “activity change, negative = cytotoxicity” value is reported as inactive: 4.11%. With `CCC(C)(C)c1nnc(NC(=O)c2cccc([N+](=O)[O-])c2)s1` the Potency was active: 20.6 µM. With `O=C(COc1ccccc1[N+](=O)[O-])N1CCC(Cc2ccccc2)CC1` the Potency was inconclusive: 14.6 µM [cytotoxic, single point]. For `O=C(Oc1cccc2cccnc12)c1ccc(Br)o1`, the “activity change, negative = cytotoxicity” value was inactive: 0%. With `COc1cccc(CN2CCN(Cc3cc(OC)c(OC)cc3[N+](=O)[O-])CC2)c1` the Potency was active: 20.6 µM. In the case of `CC(=O)c1cccc(NC(=O)COC(=O)Cn2cnc3ccccc32)c1`, the Potency is reported as inconclusive: 20.6 µM [rising, single point]. For `COc1ccc(CCNC(=O)C(=O)NCC(c2cccs2)S(=O)(=O)c2ccc(F)cc2)cc1` (configuration not stated), the Potency was inconclusive: 20.6 µM [cytotoxic, single point]. With `CCN(CCO)C1CC(=O)N(c2ccccc2C)C1=O` (configuration not stated) the Potency was inconclusive: 29.1 µM [rising, single point]. In the case of `Cc1ccc2c(C(=O)CNC3=NCCS3)c(C)[nH]c2c1`, the Potency is reported as inconclusive: 29.1 µM [rising, single point]. In the case of `COc1ccc(Nc2nc3ccccc3n3cnnc23)cc1`, the Potency is reported as active: 13 µM. With `Cc1cccc(NC(=O)c2ccc(OCc3c(C)noc3C)cc2)c1` the Potency was inconclusive: 25.9 µM [cytotoxic, single point]. In the case of `CC(NS(=O)(=O)c1ccccc1)C(=O)NC1CCCC1` (configuration not stated), the Potency is reported as inconclusive: 0.103 µM [rising, full curve]. With `COc1ccc(NC(=O)CN2CCC(n3c(C)nc4cc(F)ccc43)CC2)c(OC)c1` the Potency was inconclusive: 0.461 µM [cytotoxic, full curve]. With `O=C(/C=C/c1ccccc1)Nc1cccc(C(=O)NCCCCc2ccccc2)c1` the “activity change, negative = cytotoxicity” value was inactive: 0.0002%. For `Cc1cc(OCC(=O)N2CCOCC2)c(C(C)C)cc1Cl`, the Potency was inconclusive: 29.1 µM [cytotoxic, single point]. With `COC(=O)[C@@]1(Cc2ccc(OC)cc2)[C@H]2c3cc(C(=O)N4CCCC4)n(Cc4ccccc4)c3C[C@H]2CN1C(=O)c1ccccc1` the Potency was active: 10.3 µM. For `CN1C(=S)N(c2cccnc2)C(=O)/C1=C\c1ccc(N(C)C)cc1`, the “activity change, negative = cytotoxicity” value was inactive: 0%. With `O=C(c1ccncc1)N1CCN(c2ccc3ccccc3n2)CC1` the Potency was inconclusive: 20.6 µM [cytotoxic, partial curve]. With `N#CC1=C(N)SC(N)=C(C#N)C1C1C=CCCC1` (configuration not stated) the “activity change, negative = cytotoxicity” value was inactive: -12.4%. In the case of `CCC1CCCCN1C(=O)COc1cccc2c1CCN(C)C2=O` (configuration not stated), the Potency is reported as active: 20.6 µM. With `CC(C)c1ccc(Nc2c(-c3ccccn3)nc3ccccn23)cc1` the Potency was inconclusive: 0.58 µM [cytotoxic, full curve, poor fit]. In the case of `CC(C)c1ccc(NC(=O)C2CC3CCC2C3)cc1` (configuration not stated), the “activity change, negative = cytotoxicity” value is reported as inactive: 3.89%. For `Cc1cccnc1NC1CCCCC1`, the “activity change, negative = cytotoxicity” value was inactive: 12.4%. With `CCN(CC)S(=O)(=O)c1ccc(-n2cnc3cc(C)c(C)cc32)nc1` the Potency was inconclusive: 8.2 µM [cytotoxic, partial curve, poor fit]. With `CC(C)(C)OC(=O)NCCCC[C@H](NC(=O)c1[nH]cnc1C(=O)Nc1ccc(Cl)cc1)C(=O)OC(C)(C)C` the Potency was inconclusive: 29.1 µM [cytotoxic, single point]. For `COc1cccc(/C=N/NC(=O)c2ccc(-n3cnnn3)cc2)c1`, the Potency was inconclusive: 0.651 µM [rising, full curve]. For `O=c1ccc2cc(S(=O)(=O)N3CCN(c4ccc(Cl)cc4)CC3)ccc2o1`, the Potency was inconclusive: 23.1 µM [cytotoxic, partial curve, poor fit]. In the case of `CCOc1ccc(NC(=O)C2CCCN(S(C)(=O)=O)C2)cc1` (configuration not stated), the Potency is reported as inconclusive: 29.1 µM [rising, single point]. In the case of `CCOC(=O)C(CC)Sc1nc2c(c(=O)[nH]c(=O)n2C)n1C/C=C(/C)Cl` (configuration not stated), the Potency is reported as inconclusive: 14.6 µM [cytotoxic, partial curve]. With `CCCCn1c(Oc2ccc(C(=O)OC)cc2)nc2c1c(=O)n(C)c(=O)n2C` the Potency was active: 16.4 µM. For `CC(=O)Nc1ccc(SCCN2CC[C@@H](C(C)(C)C)CCC2=O)cc1`, the Potency was inconclusive: 20.6 µM [cytotoxic, single point]. In the case of `CCOC(=O)c1c(C)oc2nc(C)nc(NCCCN3CCN(c4cc(C)ccc4C)CC3)c12`, the Potency is reported as inconclusive: 18.4 µM [rising, single point]. In the case of `COCCn1nnnc1C(c1ccccc1OC)N1CCN(c2ccccc2)CC1` (configuration not stated), the Potency is reported as inconclusive: 7.31 µM [cytotoxic, partial curve]. In the case of `COC(=O)c1ccccc1-c1ccc(/C=N/NC(N)=O)o1`, the Potency is reported as active: 5.17 µM. With `CC(=O)Nc1ccc(S(=O)(=O)NC(CC(=O)NC2CCCCC2C)C(C)C)cc1` (configuration not stated) the Potency was inconclusive: 32.6 µM [rising, single point].
